Measured values taken from paper PMC4683259.

T1: KV10.1 voltage-gated potassium channel, full-length form (E100) (human) (UniProt O95259)
T1 sequence: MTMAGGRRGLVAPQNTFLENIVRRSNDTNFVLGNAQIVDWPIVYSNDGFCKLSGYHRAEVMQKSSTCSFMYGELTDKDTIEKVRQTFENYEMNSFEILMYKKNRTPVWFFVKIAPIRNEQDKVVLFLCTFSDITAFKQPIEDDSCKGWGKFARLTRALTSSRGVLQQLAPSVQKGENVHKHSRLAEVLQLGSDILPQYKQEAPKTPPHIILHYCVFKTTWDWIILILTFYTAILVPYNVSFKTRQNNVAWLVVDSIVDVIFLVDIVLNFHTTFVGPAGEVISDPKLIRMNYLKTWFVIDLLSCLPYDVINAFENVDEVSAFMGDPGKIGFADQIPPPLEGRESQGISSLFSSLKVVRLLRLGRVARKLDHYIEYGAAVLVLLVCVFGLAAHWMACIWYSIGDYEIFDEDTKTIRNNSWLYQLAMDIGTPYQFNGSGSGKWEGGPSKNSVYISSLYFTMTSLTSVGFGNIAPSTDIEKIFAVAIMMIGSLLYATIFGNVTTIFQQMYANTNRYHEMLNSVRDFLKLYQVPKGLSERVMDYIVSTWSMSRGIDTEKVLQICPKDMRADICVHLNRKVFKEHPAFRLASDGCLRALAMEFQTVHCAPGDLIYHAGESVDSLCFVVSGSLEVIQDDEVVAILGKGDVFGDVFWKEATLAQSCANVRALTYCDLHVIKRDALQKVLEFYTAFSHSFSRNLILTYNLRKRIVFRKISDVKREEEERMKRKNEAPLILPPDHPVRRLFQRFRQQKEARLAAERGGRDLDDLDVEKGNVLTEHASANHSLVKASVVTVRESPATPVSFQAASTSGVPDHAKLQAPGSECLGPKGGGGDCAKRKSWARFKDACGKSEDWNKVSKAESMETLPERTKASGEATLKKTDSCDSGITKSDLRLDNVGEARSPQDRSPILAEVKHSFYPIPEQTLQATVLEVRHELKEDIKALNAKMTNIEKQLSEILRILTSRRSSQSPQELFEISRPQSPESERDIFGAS


Legend:
[1] = biological target: T1, KV10.1 voltage-gated potassium channel, full-length form (E100) (human); experiment: co-IP; reverse co-IP: extracts of HEK cells stably expressing KV10.1 and transfected with the mVenus-tagged variant; full-length KV10.1 precipitated with a monoclonal anti-KV10.1 antibody against the pore region (does not bind the short variants), protein G-magnetic beads; blot with anti-GFP
[2] = biological target: E65mVenus (KV10.1 splice variant E65 fused to mVenus) (human); experiment: co-IP; extracts of HEK cells stably expressing KV10.1 and transfected with the mVenus-tagged variant; variant precipitated with anti-GFP antibody, protein G-magnetic beads; blot with a polyclonal antibody against the C terminus of KV10.1; lysis buffer 50 mM Tris-HCl pH 7.4, 300 mM NaCl, 5 mM EDTA, 1% Triton X-100
[3] = biological target: E70mVenus (KV10.1 splice variant E70 fused to mVenus) (human); experiment: as above

Row | binding [1] | binding [2] | binding [3] | Molecule
1 | binds | – | – | E65mVenus (KV10.1 splice variant E65 fused to mVenus) (human)
2 | binds | – | – | E70mVenus (KV10.1 splice variant E70 fused to mVenus) (human)
3 | – | binds | binds | KV10.1 voltage-gated potassium channel, full-length form (E100) (protein, UniProt O95259 1-989) MTMAGGRRGLVAPQNTFLENIVRRSNDTNFVLGNAQIVDWPIVYSNDGFCKLSGYHRAEVMQKSSTCSFMYGELTDKDTIEKVRQTFENYEMNSFEILMYKKNRTPVWFFVKIAPIRNEQDKVVLFLCTFSDITAFKQPIEDDSCKGWGKFARLTRALTSSRGVLQQLAPSVQKGENVHKHSRLAEVLQLGSDILPQYKQEAPKTPPHIILHYCVFKTTWDWIILILTFYTAILVPYNVSFKTRQNNVAWLVVDSIVDVIFLVDIVLNFHTTFVGPAGEVISDPKLIRMNYLKTWFVIDLLSCLPYDVINAFENVDEVSAFMGDPGKIGFADQIPPPLEGRESQGISSLFSSLKVVRLLRLGRVARKLDHYIEYGAAVLVLLVCVFGLAAHWMACIWYSIGDYEIFDEDTKTIRNNSWLYQLAMDIGTPYQFNGSGSGKWEGGPSKNSVYISSLYFTMTSLTSVGFGNIAPSTDIEKIFAVAIMMIGSLLYATIFGNVTTIFQQMYANTNRYHEMLNSVRDFLKLYQVPKGLSERVMDYIVSTWSMSRGIDTEKVLQICPKDMRADICVHLNRKVFKEHPAFRLASDGCLRALAMEFQTVHCAPGDLIYHAGESVDSLCFVVSGSLEVIQDDEVVAILGKGDVFGDVFWKEATLAQSCANVRALTYCDLHVIKRDALQKVLEFYTAFSHSFSRNLILTYNLRKRIVFRKISDVKREEEERMKRKNEAPLILPPDHPVRRLFQRFRQQKEARLAAERGGRDLDDLDVEKGNVLTEHASANHSLVKASVVTVRESPATPVSFQAASTSGVPDHAKLQAPGSECLGPKGGGGDCAKRKSWARFKDACGKSEDWNKVSKAESMETLPERTKASGEATLKKTDSCDSGITKSDLRLDNVGEARSPQDRSPILAEVKHSFYPIPEQTLQATVLEVRHELKEDIKALNAKMTNIEKQLSEILRILTSRRSSQSPQELFEISRPQSPESERDIFGAS

Results are given in words; binding and its absence hold for the method and conditions named. In cells and extracts the contact can be indirect. Binding can be weak; no strength is given. Sequences can lack the tags named with a protein.
